# Results are given in words; binding and its absence hold for the method and conditions named. Binding seen in cells or lysates may run through a third protein. Some entries that bind do so weakly or less than the wild type.
# Sequences of proteins named here, by UniProt entry; tags and fusion partners are left off. Residues count along the entry.
# UniProt P30530, residues 26-894: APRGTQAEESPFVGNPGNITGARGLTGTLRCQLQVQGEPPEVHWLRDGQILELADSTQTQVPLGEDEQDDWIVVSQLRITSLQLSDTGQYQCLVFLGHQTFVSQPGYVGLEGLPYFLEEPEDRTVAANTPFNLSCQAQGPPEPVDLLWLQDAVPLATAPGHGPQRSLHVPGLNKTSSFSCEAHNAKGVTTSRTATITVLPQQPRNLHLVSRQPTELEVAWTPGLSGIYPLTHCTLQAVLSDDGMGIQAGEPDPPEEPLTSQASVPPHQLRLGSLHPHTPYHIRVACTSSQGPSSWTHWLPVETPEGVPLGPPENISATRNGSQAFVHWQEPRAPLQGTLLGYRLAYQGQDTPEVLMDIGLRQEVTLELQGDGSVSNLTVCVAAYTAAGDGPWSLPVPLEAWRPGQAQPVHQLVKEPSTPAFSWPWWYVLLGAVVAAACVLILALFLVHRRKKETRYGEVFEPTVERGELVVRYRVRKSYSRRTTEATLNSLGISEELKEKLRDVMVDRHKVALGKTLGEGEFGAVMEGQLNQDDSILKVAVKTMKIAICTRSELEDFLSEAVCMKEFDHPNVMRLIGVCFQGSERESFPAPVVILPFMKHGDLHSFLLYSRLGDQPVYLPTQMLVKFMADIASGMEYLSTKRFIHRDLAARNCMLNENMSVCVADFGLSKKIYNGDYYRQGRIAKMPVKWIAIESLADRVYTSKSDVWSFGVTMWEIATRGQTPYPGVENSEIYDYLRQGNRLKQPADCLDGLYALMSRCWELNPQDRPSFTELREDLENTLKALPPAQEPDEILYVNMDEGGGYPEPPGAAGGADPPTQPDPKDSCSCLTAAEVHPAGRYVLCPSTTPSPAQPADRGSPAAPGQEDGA
# B1: PROS1 in human lung tissue (ligand, UniProt P07225 42-676)
# chain: ANSLLEETKQGNLERECIEELCNKEEAREVFENDPETDYFYPKYLVCLRSFQTGLFTAARQSTNAYPDLRSCVNAIPDQCSPLPCNEDGYMSCKDGKASFTCTCKPGWQGEKCEFDINECKDPSNINGGCSQICDNTPGSYHCSCKNGFVMLSNKKDCKDVDECSLKPSICGTAVCKNIPGDFECECPEGYRYNLKSKSCEDIDECSENMCAQLCVNYPGGYTCYCDGKKGFKLAQDQKSCEVVSVCLPLNLDTKYELLYLAEQFAGVVLYLKFRLPEISRFSAEFDFRTYDSEGVILYAESIDHSAWLLIALRGGKIEVQLKNEHTSKITTGGDVINNGLWNMVSVEELEHSISIKIAKEAVMDINKPGPLFKPENGLLETKVYFAGFPRKVESELIKPINPRLDGCIRSWNLMKQGASGIKEIIQEKQNKHCLVTVEKGSYYPGSGIAQFHIDYNNVSSAEGWHVNVTLNIRPSTGTGVMLALVSGNNTVPFAVSLVDSTSEKSQDILLSVENTVIYRIQALSLCSDQQSHLEFRVNRNNLELSTPLKIETISHEDLQRQLAVLDKAMKAKVATYLGGLPDVPFSATPVNAFYNGCMEVNINGVQLDLDEAISKHNDIRAHSCPSVWKKTKNS
# Molecular target: AXL in human lung tissue (human (endogenous in human lung tissue)) (UniProt P30530)
# Assay: FRET or BRET
binder,measurement,value
B1,binding,binds

# Source: publication doi:10.1101/2025.04.07.647567 (bioRxiv, 2025)
